Measurements as given in PubChem BioAssay AID2685 (National Center for Advancing Translational Sciences (NCATS), 2010).
The other results are listed elsewhere or left out. These are further read-outs of the screen, such as a control signal, another cell line or another target. No call is given for them. Most of these compounds were active or inconclusive in the main read-out, so they are no random draw. Words in brackets tell the shape of the fitted curve; partial curves, single points and poor fits give uncertain potencies.

Assay: qHTS Assay for Lipid Storage Modulators in Drosophila S3 Cells;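 as to cell number change: cells counted by Cell Tracker Red CMTPX staining in the red channel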
Settings: BODIPY lipid droplet fluorescence, 18-24 h; for cell number change: measured here: cell count max response, cells fed with added oleic acid
Outline: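 Drosophila S3 cells loaded with oleic acid (400 uM, as added) and compounds at several concentrations; lipid droplets imaged by 488-nm laser-scanning cytometry, 500–530 nm intensity and object ratio to cell channel. Percent activity normalized to 20 uM Triacsin C.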

[1] = measured here: cell number channel AC50, cells fed with added oleic acid
[2] = measured here: lipid fluorescence (Fed channel) AC50, cells fed with added oleic acid

O=C(C[C@H]1C(=O)N(CCc2ccccc2)C[C@@H]1Cc1ccccc1)Nc1ccccc1
cell number change: 8.08%

COc1ccc(/C=C/C(=O)Nc2ccc3c(c2)OCCO3)cc1OC
cell number change: 84.4% | AC50 [1]: 29.1 µM [rising, single point] | AC50 [2]: 0.326 µM [rising, full curve, poor fit]

CCN(CC)C(=O)NC(c1ccc(C)c(F)c1)C(Cl)(Cl)Cl (centres undefined)
cell number change: -28.5% | AC50 [2]: 1.3 µM [rising, partial curve]

CSc1cc(C)c(OCC(=O)Nc2ccc(NC(C)=O)cc2)c(C)c1
cell number change: 9.96%

S=C1NC(c2cccs2)=CC(c2ccc(Br)cc2)N1 (centres undefined)
cell number change: 18.8% | AC50 [2]: 29.1 µM [rising, single point]

O=C(CSc1nnc(Nc2ccccc2F)s1)Nc1cccc(S(=O)(=O)N2CCCCC2)c1
cell number change: -35.4% | AC50 [1]: 32.6 µM [falling, single point] | AC50 [2]: 18.4 µM [falling, partial curve]

CCOc1ccc(S(=O)(=O)NCc2cccnc2)cc1NC(=O)c1ccccc1F
cell number change: 98.7% | AC50 [1]: 29.1 µM [rising, single point]

N/C(COc1ccccc1)=N\NS(=O)(=O)c1ccccc1
AC50 [2]: 0.116 µM [falling, full curve, poor fit]

COc1ccccc1-n1c(C)c(C(C)=O)c2cc(O)ccc21
cell number change: 12% | AC50 [1]: 0.103 µM [rising, full curve, poor fit] | AC50 [2]: 6.51 µM [rising, single point]

CCCCCC(=O)Nc1cccc(-c2nc3ncccc3o2)c1
cell number change: 1.04%

CSc1ccc(C(=O)C2CCCN(C(=O)CCn3cncn3)C2)cc1 (centres undefined)
cell number change: 0.99% | AC50 [1]: 0.461 µM [rising, single point]

CSCCC(NC(=O)COc1ccccc1)C(=O)N(C)Cc1cccc(F)c1 (centres undefined)
cell number change: 36.4% | AC50 [1]: 29.1 µM [rising, single point] | AC50 [2]: 32.6 µM [rising, single point]

CCc1ccc(NC(=S)N2CCCCCCC2)cc1
cell number change: -7.45%

Cc1noc(C)c1C(=O)N1CCc2ccccc21
cell number change: -2.84% | AC50 [2]: 0.651 µM [falling, single point]

O=C(NNc1c(Cl)cc(Cl)cc1Cl)C1CCC1
cell number change: 4.94% | AC50 [2]: 29.1 µM [rising, single point]

COc1ccc(N2C(=O)NC3CC2(C)Oc2ccc(Cl)cc23)cc1OC (centres undefined)
cell number change: -20% | AC50 [2]: 0.0058 µM [falling, full curve, poor fit]

CN=C(NC1CCCCC1)c1ccc([N+](=O)[O-])cc1
cell number change: 3.41% | AC50 [2]: 10.3 µM [rising, partial curve]

CC(=O)Nc1ccc(NC(=S)Nc2ccc(F)cc2)cc1
cell number change: 40.2%

CCN(CC)S(=O)(=O)c1ccc(/C=C/C(=O)NC2CCCCC2)cc1
cell number change: 12.6%

CC1CN(C(=O)CCNS(=O)(=O)c2ccc(Br)cc2)CC(C)O1 (centres undefined)
cell number change: -3.95% | AC50 [2]: 29.1 µM [rising, partial curve]

O=C(O)CSc1ccc(S(=O)(=O)N2CCCC2)cn1
cell number change: -38.7% | AC50 [2]: 0.13 µM [falling, full curve, poor fit]

COc1cc(C(=O)N/C(=C\c2cn(C)c3ccccc23)C(=O)N2CCN(C)CC2)cc(OC)c1OC
cell number change: 15.6%

O=C(O)CNC(=O)c1ccc(S(=O)(=O)N2CCOCC2)cc1
cell number change: 4.21% | AC50 [2]: 1.46 µM [rising, full curve, poor fit]

CC(C)n1c(O)c(N=Nc2ccc(Cl)c(C(=O)O)c2)c2ccccc21
cell number change: 18.7% | AC50 [2]: 18.4 µM [rising, partial curve, poor fit]

O=C(Nc1cccc(S(=O)(=O)N2CCOCC2)c1)c1cccc(S(=O)(=O)N2CCCCC2)c1
cell number change: 17.3%

O=C(CN1C(=O)c2cccc3cccc(c23)C1=O)N1CCN(c2ccccn2)CC1
cell number change: -7.33% | AC50 [2]: 0.731 µM [rising, single point]

Cc1cccc(OCC(=O)Nc2ccccc2N2CCN(C(=O)C(C)C)CC2)c1C
AC50 [1]: 6.51 µM [rising, single point]

C=CCNC(=S)NNC(=O)c1cc(C)nc2ccccc12
cell number change: 20.9% | AC50 [2]: 6.51 µM [rising, partial curve]

COc1ccc(N2CCN(C(=O)Nc3cccc(C(F)(F)F)c3)CC2)cc1
cell number change: -12.8% | AC50 [2]: 2.59 µM [rising, partial curve]

Cc1ccc(N=N/C(=C\O)C(=O)c2ccc(Cl)cc2)cc1
cell number change: -64.8%

O=C(Nc1nc(-c2ccc(F)cc2)cs1)C1CCN(C(=O)c2ccc(F)cc2)CC1
AC50 [1]: 6.51 µM [rising, single point]

CC(Sc1nnnn1C)C(=O)Nc1ccccc1 (centres undefined)
cell number change: -22.9%

COC(=O)[C@]1(Cc2ccccc2)N[C@H](c2ccc(-c3ccc(Cl)c(Cl)c3)cc2)[C@@H]2C(=O)N(C)C(=O)[C@@H]21
cell number change: -42.4% | AC50 [1]: 16.4 µM [falling, partial curve, poor fit] | AC50 [2]: 6.51 µM [falling, single point]

Cc1cc(NC(=O)c2sc(Nc3cccc(C(F)(F)F)c3)nc2N)no1
cell number change: -9.47% | AC50 [2]: 0.092 µM [rising, full curve, poor fit]

O=C(COC(=O)c1ccc(F)c(S(=O)(=O)N2CCOCC2)c1)NCCc1ccccc1
AC50 [2]: 0.731 µM [rising, partial curve, poor fit]

CCOC(=O)CNC(=O)c1ccc(Cl)s1
cell number change: -24.1% | AC50 [2]: 6.51 µM [falling, single point]

Cc1cc(C)c2c(n1)SCC(=O)N2CC(=O)Nc1ccc(Br)c(C)c1
cell number change: -25.6% | AC50 [2]: 29.1 µM [rising, single point]

C/C(=N/O)c1ccccn1
cell number change: 7.36% | AC50 [2]: 18.4 µM [falling, partial curve]

COc1ccc(C)cc1NS(=O)(=O)c1cccc2nonc12
cell number change: 1.69% | AC50 [2]: 29.1 µM [rising, single point]

CCc1cccc(N=c2c([N+](=O)[O-])nn(-c3ccc(Cl)cc3)n2O)c1
cell number change: -53.4% | AC50 [1]: 29.1 µM [falling, single point]

Cc1ccc(C(=O)NNC(=O)C2CC2)cc1Br
cell number change: 18.5% | AC50 [2]: 0.259 µM [rising, single point]

Cc1cccc(NC(=O)CSc2nc(=O)n3ccccc3n2)c1C
cell number change: 5.68% | AC50 [2]: 0.13 µM [rising, full curve, poor fit]

Cc1ccc2oc(-c3cccc(NC(=O)Cn4cnc5c(=O)n(C)c(=O)n(C)c54)c3)nc2c1
AC50 [2]: 0.461 µM [rising, single point]

Cc1ccccc1C(=O)NCCOc1ccccc1Cl
cell number change: -7.3%

COc1cc(-c2c(NC(=O)c3ccco3)oc3c(C)cccc3c2=O)cc(OC)c1OC
cell number change: 1.18% | AC50 [2]: 0.0164 µM [rising, full curve, poor fit]

COc1ccccc1C(CNC(=O)c1oc2ccccc2c1C)N1CCCC1 (centres undefined)
cell number change: -19.1% | AC50 [2]: 16.4 µM [rising, partial curve]

Cc1sc2ncnc(N3CCC(C(=O)N(CC(C)C)c4nc5ccccc5s4)CC3)c2c1C
cell number change: 31.5% | AC50 [1]: 1.84 µM [rising, partial curve]

O=C(COc1ccc(-c2ccccc2)cc1)NN=C1CCCC1
cell number change: -58.2%

COc1ccc(-c2cc3ccccc3n2CC(O)CN2CCC(C)CC2)cc1 (centres undefined)
cell number change: 35.1% | AC50 [1]: 29.1 µM [rising, single point]

Cc1cc(C(F)F)n2nc(C(=O)Nc3ccccc3Br)nc2n1
AC50 [2]: 0.58 µM [rising, single point]

COCCCn1c(SCC(=O)NC2CCCC2)nnc1-c1ccncc1
cell number change: 22.3% | AC50 [2]: 6.51 µM [rising, single point]

COc1ccc(C)cc1-n1nnnc1SCc1csc(C)n1
cell number change: -6.12% | AC50 [2]: 0.116 µM [rising, full curve, poor fit]

O=C1c2oc3ccccc3c(=O)c2C(c2cccc(O)c2)N1c1ccccn1 (centres undefined)
cell number change: 40.2% | AC50 [1]: 29.1 µM [rising, single point] | AC50 [2]: 3.26 µM [rising, single point]

CCC1CCCCN1CCCNS(=O)(=O)c1ccc2c(c1)oc(=O)n2C (centres undefined)
cell number change: 16.2% | AC50 [1]: 0.651 µM [rising, full curve]

Cc1cc(C)c(NC(=O)C2CC(=O)N(Cc3ccccc3)C2)c(C)c1 (centres undefined)
cell number change: 10.6% | AC50 [2]: 29.1 µM [falling, single point]

CCN(CC(=O)Nc1c(F)cccc1F)C(=O)CSc1ccc(F)cc1
cell number change: 19%

CCOc1ccc2nc(SCC(=O)N3CCCc4ccccc43)sc2c1
cell number change: -9.9% | AC50 [2]: 16.4 µM [falling, single point]

NNC(=O)CN(CCc1ccccc1)S(=O)(=O)c1ccc(Cl)cc1
cell number change: 51.7% | AC50 [1]: 3.26 µM [falling, single point] | AC50 [2]: 7.31 µM [rising, partial curve]

CCN(C(=O)CSc1ncn[nH]1)c1c(N)n(Cc2ccccc2)c(=O)[nH]c1=O
cell number change: -16.5%

CC(=O)Nc1ccc(NC(=O)Cc2ccc(S(=O)(=O)N3CCCCC3)cc2)cc1
AC50 [1]: 6.51 µM [rising, single point]

O=c1nc(-c2ccccc2Cl)c2cc(F)ccc2[nH]1
cell number change: 6.74%

COc1ccc(CN(C(=O)c2ccccc2Br)C2CCS(=O)(=O)C2)cc1 (centres undefined)
cell number change: 13.3% | AC50 [2]: 0.00411 µM [rising, full curve, poor fit]

Cc1cc(C)c(C)c(OCCOCCN2CCN(C)CC2)c1
cell number change: -6.43% | AC50 [2]: 29.1 µM [falling, single point]

CNC(=O)c1c(NC(=O)c2cccc(C)c2)sc2c1CCC2
AC50 [2]: 6.51 µM [falling, single point]

O=C1NC(Cc2c[nH]c3ccccc23)C(=O)N1Cc1cccc2ccccc12 (centres undefined)
cell number change: 15.6% | AC50 [2]: 0.00461 µM [rising, full curve, poor fit]
